# Test results reported in paper PMC5468253.
# Chains of the proteins cited; added tags and fusions are not shown. Residues count along the entry.
# UniProt Q9NNX6: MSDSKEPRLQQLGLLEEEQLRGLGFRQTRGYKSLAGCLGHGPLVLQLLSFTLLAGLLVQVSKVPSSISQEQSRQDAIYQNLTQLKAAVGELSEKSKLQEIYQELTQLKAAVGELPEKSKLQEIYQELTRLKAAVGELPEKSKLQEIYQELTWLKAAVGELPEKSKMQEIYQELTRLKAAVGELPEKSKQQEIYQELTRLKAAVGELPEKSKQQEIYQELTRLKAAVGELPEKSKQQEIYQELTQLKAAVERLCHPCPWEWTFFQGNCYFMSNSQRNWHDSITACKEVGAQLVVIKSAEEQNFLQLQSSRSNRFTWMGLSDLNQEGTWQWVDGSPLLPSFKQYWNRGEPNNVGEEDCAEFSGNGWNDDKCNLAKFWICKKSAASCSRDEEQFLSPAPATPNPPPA
# UniProt O00206, residues 24-839: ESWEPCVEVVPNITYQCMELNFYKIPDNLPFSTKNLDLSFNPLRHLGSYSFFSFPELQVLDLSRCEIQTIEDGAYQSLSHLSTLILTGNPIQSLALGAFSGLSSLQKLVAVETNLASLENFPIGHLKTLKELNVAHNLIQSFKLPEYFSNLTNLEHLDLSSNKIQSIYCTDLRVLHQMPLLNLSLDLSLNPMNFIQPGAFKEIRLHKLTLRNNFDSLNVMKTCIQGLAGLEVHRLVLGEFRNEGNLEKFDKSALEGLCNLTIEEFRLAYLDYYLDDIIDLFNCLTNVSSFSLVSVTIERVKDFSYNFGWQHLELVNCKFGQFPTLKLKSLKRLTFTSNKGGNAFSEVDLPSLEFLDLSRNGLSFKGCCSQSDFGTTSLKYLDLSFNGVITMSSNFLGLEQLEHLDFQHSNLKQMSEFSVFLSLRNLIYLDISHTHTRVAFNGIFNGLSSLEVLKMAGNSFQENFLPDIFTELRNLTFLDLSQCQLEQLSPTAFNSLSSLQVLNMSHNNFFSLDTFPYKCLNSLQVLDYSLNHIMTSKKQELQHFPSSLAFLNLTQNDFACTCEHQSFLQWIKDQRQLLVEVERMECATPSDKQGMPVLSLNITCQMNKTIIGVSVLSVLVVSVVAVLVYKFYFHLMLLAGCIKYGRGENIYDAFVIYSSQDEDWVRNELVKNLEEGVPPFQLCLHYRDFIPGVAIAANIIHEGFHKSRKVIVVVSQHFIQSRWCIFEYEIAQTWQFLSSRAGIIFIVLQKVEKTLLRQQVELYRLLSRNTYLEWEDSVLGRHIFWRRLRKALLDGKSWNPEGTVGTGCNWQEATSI
# These are yes or no findings as the source states them, for the method shown. Binding seen in cells or lysates may run through a third protein. Some results given as binding are weak or reduced against the parent protein; the word gives no strength.
# How the values were obtained:
# [1] = biological target: FLAG-DC-SIGN (human) (UniProt Q9NNX6); assay: pull-down; FLAG-DC-SIGN from HEK293 lysate (10 μg) adsorbed onto anti-FLAG M2 beads, washed six times, incubated overnight at 4 °C with His-TLR4 HEK293 lysate (10 μg) in 140 mM NaCl, 10 mM Na2HPO4, 1.8 mM KH2PO4, pH 7.5; eluted with FLAG peptide; immunoblot; only the target purified
# [2] = biological target: dendritic cell-specific intercellular adhesion molecule-3-grabbing non-integrin (DC-SIGN) (human (endogenous in primary monocyte-derived macrophages)) (UniProt Q9NNX6); assay: co-IP; lysates of human primary macrophages incubated with oxLDL (0, 12.5, 25 and 50 μg/ml) for 6 hours; immunoprecipitated with a DC-SIGN antibody (Pierce Crosslink Immunoprecipitation Kit), blotted for TLR4
Substance,binding [1],binding [2]
His-TLR4 (from UniProt O00206 24-839) (receptor),binds,
Toll-like receptor 4 (TLR4) (from UniProt O00206 24-839),,binds
